From paper PMC7819943, “Rice protein-binding microarrays: a tool to detect cis-acting elements near promoter regions in rice”
This is one part of the list.

biological target: T1, OsSMF1 (Oryza sativa, UniProt Q6ZLB0 1-436); assay: protein-binding microarray (RPBM); PBS, 2% BSA, 51.3 ng/ul salmon testes DNA, 50 uM zinc acetate, 200 nM TF, 25 C, 1 h; high values mean tight binding; settings: protein: recombinant; tags: N-terminal polyhistidine and DsRed monomer fusion (pET32a); chain copies: 2; label: CyDye5-dUTP incorporated in the synthesized complementary strand; 3' TTTTT single-stranded linker to array surface; dsDNA, one strand shown
T1 sequence: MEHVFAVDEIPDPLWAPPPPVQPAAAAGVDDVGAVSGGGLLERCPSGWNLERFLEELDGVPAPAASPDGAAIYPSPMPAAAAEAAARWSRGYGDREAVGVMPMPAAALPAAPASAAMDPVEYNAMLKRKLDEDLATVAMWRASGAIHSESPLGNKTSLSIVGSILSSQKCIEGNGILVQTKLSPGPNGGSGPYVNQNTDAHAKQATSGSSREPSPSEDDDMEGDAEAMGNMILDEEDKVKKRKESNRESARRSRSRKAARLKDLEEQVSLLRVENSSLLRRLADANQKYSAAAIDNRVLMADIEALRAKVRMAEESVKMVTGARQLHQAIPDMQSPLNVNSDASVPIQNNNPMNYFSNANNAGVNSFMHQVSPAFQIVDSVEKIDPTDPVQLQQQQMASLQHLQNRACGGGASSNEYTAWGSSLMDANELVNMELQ
How it was run: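 The binding signal is fluorescence intensity per array feature (arbitrary units). Readings came from an Axon 4000B scanner after a washed, 2% BSA-blocked, double-stranded custom Agilent array had been incubated for 1 h at 25 °C with 200 nM protein and 50 µM zinc acetate. The protein was a Ni–NTA-purified transcription factor fused N-terminally to polyhistidine and DsRed, expressed in E. coli BL21-CodonPlus.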

Point of comparison: “AAGATATAGTAACCCAGTCTTCTGGAGATATTCATATAGGCGGAGTCACCTAGTGCAG”, binding signal 3860 fluorescence intensity (a.u.). Against it:
- GCGGGGTTCGTGGTGTGTGCGTGTGCGTCTCTCTCTGTCTCGGAGTCACCTAGTGCAG — higher, 5200 fluorescence intensity (a.u.)
- GCTACACGAGCGAGCATGGTTGCATGAGTCATGAGTGCAACGGAGTCACCTAGTGCAG — lower, 3780 fluorescence intensity (a.u.)
- CCACAACGGCGGCCTTCCTCCCCTACACCGGCAATGGCAACGGAGTCACCTAGTGCAG — lower, 3670 fluorescence intensity (a.u.)
- GATACGAATACAAGTATGATGTCATGGTTTCCACTGGATACGGAGTCACCTAGTGCAG — higher, 11000 fluorescence intensity (a.u.)
- ATGAACGAGAGGTTCTTAACCGAAGAATGCAACCTTCGAACGGAGTCACCTAGTGCAG — lower, 3180 fluorescence intensity (a.u.)
- GGGTTTTGGAGTGGTGGTGGTGGAGGATTGGAGTTGGGGTCGGAGTCACCTAGTGCAG — lower, 3790 fluorescence intensity (a.u.)
- GTTGCAGGGTGTACCACGTGGCCCTGTCCACCTTGCTGTTCGGAGTCACCTAGTGCAG — higher, 7030 fluorescence intensity (a.u.)
- TTTGTTATGAAAACTTGGTTTCCTTTCATATTCCGCGTATCGGAGTCACCTAGTGCAG — lower, 3410 fluorescence intensity (a.u.)
- TTGTTGGGTGCTGAATTGCTGATGTGGTGGGGTGACATGACGGAGTCACCTAGTGCAG — higher, 10100 fluorescence intensity (a.u.)
- CGTGCGCAAGGCGTGTTTCTTCGGAGTTCGGATCACACGTCGGAGTCACCTAGTGCAG — lower, 3280 fluorescence intensity (a.u.)
- CCGTAGTGGTTGACAGGTGGACCCGATCCTATATGTCAGCCGGAGTCACCTAGTGCAG — lower, 3720 fluorescence intensity (a.u.)
- GATGGGAGTAGAGGGGAGTGAGGTGGAAGAAGATTGTTGGCGGAGTCACCTAGTGCAG — higher, 4440 fluorescence intensity (a.u.)
- TGCTAATTTTATCCCGTGACTATCGTGCAGTAACGGAATTCGGAGTCACCTAGTGCAG — higher, 4330 fluorescence intensity (a.u.)
- TCGCCACCGCGGCGCCCGGCTGCTGTTCCATGACTGCGCCCGGAGTCACCTAGTGCAG — lower, 3550 fluorescence intensity (a.u.)
- AGCCCGCCGCGTCGACATCACCGCAGCCGCTCTCGTCGAGCGGAGTCACCTAGTGCAG — lower, 3500 fluorescence intensity (a.u.)
- ACCCACAACATCACAGCACGGTTGCCGCTTGCTCCGGTGTCGGAGTCACCTAGTGCAG — lower, 3780 fluorescence intensity (a.u.)
- CACCTAACCGTTCTCACTGACGTGTGGGACATGACGGGCTCGGAGTCACCTAGTGCAG — higher, 4890 fluorescence intensity (a.u.)
- GAAAATAGGAACAGAGTAGGAGTGGAGAGCTCGTTGGAGGCGGAGTCACCTAGTGCAG — higher, 4180 fluorescence intensity (a.u.)
- CTCATTTTGTCATCAGTAATGGAGATGTCATCACTACTACCGGAGTCACCTAGTGCAG — higher, 3960 fluorescence intensity (a.u.)
- CCACCTGCCACCCACCGTCCGCGTTCGCGCGCGGCGTACCCGGAGTCACCTAGTGCAG — higher, 4690 fluorescence intensity (a.u.)
- ACTTTCCCACCACGTACGCCCGCCACTCGCGCCGTCCCCACGGAGTCACCTAGTGCAG — higher, 5250 fluorescence intensity (a.u.)
- CCACCACCACCACCATACAACCTACTATGATGGCGTACAGCGGAGTCACCTAGTGCAG — higher, 19900 fluorescence intensity (a.u.)
- AGACGACGTGCCGCGGGTCACGTGTCCTCGTGGCACGCTACGGAGTCACCTAGTGCAG — higher, 4060 fluorescence intensity (a.u.)
- GACTTGGTTGCGTAACTTTGCACTCGTTTTCCCTTGGGGACGGAGTCACCTAGTGCAG — higher, 10400 fluorescence intensity (a.u.)
- GTCCGCCTTGAACTCCTCCACGTCCTTCCTCTTGCAGATCCGGAGTCACCTAGTGCAG — higher, 7660 fluorescence intensity (a.u.)
- TAGTCGTCGTATCTTGATGACACGTGCGACCGGCCCGCGCCGGAGTCACCTAGTGCAG — higher, 5540 fluorescence intensity (a.u.)
- CAATCCACATCTTCAGCACTTCAATGACTCTGAGCAAATCCGGAGTCACCTAGTGCAG — lower, 3560 fluorescence intensity (a.u.)
- GACTCCGCGCGCACGGCCGGTGACTCGACTGCCTCGTCTCCGGAGTCACCTAGTGCAG — lower, 3700 fluorescence intensity (a.u.)
- AAGGCCAGCTTCGGCATCGGCACCGACGATGACGCCACCGCGGAGTCACCTAGTGCAG — higher, 5610 fluorescence intensity (a.u.)
- AACGCTGCGTCAGGAGAGCGACCACACGGTGTCCCGTCCCCGGAGTCACCTAGTGCAG — lower, 3260 fluorescence intensity (a.u.)
- ACACTAATTTCAAGGTTGCTCGTGAGTCATAATCCTGACGCGGAGTCACCTAGTGCAG — higher, 7720 fluorescence intensity (a.u.)
- ATCTCTTTGATAGTTGACATCGAGGCAGTGATTAATTAAGCGGAGTCACCTAGTGCAG — lower, 3400 fluorescence intensity (a.u.)
- CGCTTCTCTCCCTGAGCTCGGCCTCGTGTCACTGACGTCGCGGAGTCACCTAGTGCAG — higher, 4390 fluorescence intensity (a.u.)
- AACCACCCTCCGCCGCCGCCGCCGCTCGCCGTAGTCACCTCGGAGTCACCTAGTGCAG — lower, 3180 fluorescence intensity (a.u.)
- TCCAGGGCCCCATCTACGTCGGCACCGGCTGCTTGTTCCGCGGAGTCACCTAGTGCAG — higher, 3900 fluorescence intensity (a.u.)
- GGCTGCATCCATGGCCCAGGCATGACAACCCATCGTGCTTCGGAGTCACCTAGTGCAG — lower, 3450 fluorescence intensity (a.u.)
- AAGATGGTGTAGGAGAGACTGACGTGTGGGTCCCAGTGTCCGGAGTCACCTAGTGCAG — higher, 6640 fluorescence intensity (a.u.)
- TTAGGTGGAGCTGAAACTGTTTGGCTGAGCTGGGGTGGAGCGGAGTCACCTAGTGCAG — lower, 3700 fluorescence intensity (a.u.)
- CCCCGTTGCCGACATCGATGTGTGCCACACTATCGGACCTCGGAGTCACCTAGTGCAG — lower, 3360 fluorescence intensity (a.u.)
- GTGTGTGTGTGTGTGTGTGTGTGCGTGGGGCGAAGGGAGGCGGAGTCACCTAGTGCAG — higher, 4110 fluorescence intensity (a.u.)
- AGACAAGTAGGCATGTAAGTGACTCTAATTGCATGCAGTTCGGAGTCACCTAGTGCAG — higher, 3970 fluorescence intensity (a.u.)
- GCTGTTCAGTCGTCTCGTCAGCACGTACGCCCATCTTTGTCGGAGTCACCTAGTGCAG — higher, 6250 fluorescence intensity (a.u.)
- TCGTGTTGATCTCCCATAGGGGCGGGCAGCTGCCTCCAGTCGGAGTCACCTAGTGCAG — lower, 3220 fluorescence intensity (a.u.)
- GGATGTTGGAAATAAACACGTCATGGTGTATTCCTGGCGTCGGAGTCACCTAGTGCAG — higher, 18700 fluorescence intensity (a.u.)
- GGGTCGGCAATGAATATTTGTTCTCGAGTGACGTACAGCACGGAGTCACCTAGTGCAG — higher, 4240 fluorescence intensity (a.u.)
- CGCGAACACCTGGCGCCCATCCACGCATGCATCCATGCCACGGAGTCACCTAGTGCAG — higher, 4190 fluorescence intensity (a.u.)
- TGTACAGCTCACTCATCACTGATCCGTCCCATGTGGTTCACGGAGTCACCTAGTGCAG — lower, 3660 fluorescence intensity (a.u.)
- TCGGCGAACGTACTTCTTGTCAGCCAGCTTATAGCCATTGCGGAGTCACCTAGTGCAG — lower, 3850 fluorescence intensity (a.u.)
- AATGCCGTCCGCCCACGTGGCCAACCCGCGACCACCCGCGCGGAGTCACCTAGTGCAG — higher, 15000 fluorescence intensity (a.u.)
- TTATTTGATGACTCGCTTCTCGTCCCACAGAAAATCTTCTCGGAGTCACCTAGTGCAG — higher, 4140 fluorescence intensity (a.u.)
- TTATCAATCGTCATTATACTGTGTGTAACCTGTTGGATGACGGAGTCACCTAGTGCAG — lower, 3320 fluorescence intensity (a.u.)
- CGATGGCTGCCACTGCCAACGTCAAGCTCCTCTCCGACGGCGGAGTCACCTAGTGCAG — lower, 3850 fluorescence intensity (a.u.)
- GGCGGTGCTCGTCGCCGGCGCCGCCGTCAGCAATGCGCAGCGGAGTCACCTAGTGCAG — higher, 5490 fluorescence intensity (a.u.)
